Like-named read-outs stand apart in the source and are kept apart here. No constants are given. Whether binding was seen depends on the method and setting. Binding seen in cells or lysates may run through a third protein. A yes stands for co-enrichment or nearness to the bait. Other partners may have been found. Sequences can lack the tags named with a protein.
How the values were obtained:
Assay in all cases: affinity purification with mass spectrometry
[1] = biological target: T1, GFP-Gorab in D-Mel cells (poly-Ubiquitin-GFP-Gorab or pMT-GFP-Gorab) (Drosophila) (UniProt Q8IQQ4)
T1 sequence: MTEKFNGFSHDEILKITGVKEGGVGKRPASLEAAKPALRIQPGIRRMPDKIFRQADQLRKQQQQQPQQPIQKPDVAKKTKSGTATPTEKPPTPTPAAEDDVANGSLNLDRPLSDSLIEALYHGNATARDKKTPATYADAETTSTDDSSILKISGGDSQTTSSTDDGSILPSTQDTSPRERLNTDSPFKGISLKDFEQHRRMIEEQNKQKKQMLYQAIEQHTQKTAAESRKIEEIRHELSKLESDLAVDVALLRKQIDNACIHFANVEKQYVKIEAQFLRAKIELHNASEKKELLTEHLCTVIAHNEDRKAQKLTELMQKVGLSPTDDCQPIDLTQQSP

By UniProt entry, the sequences of proteins in these tests, tags left out. Where a name states a change or a piece, a line headed by the entry shows the natural chain unless it says otherwise.
UniProt Q9Y0Y5: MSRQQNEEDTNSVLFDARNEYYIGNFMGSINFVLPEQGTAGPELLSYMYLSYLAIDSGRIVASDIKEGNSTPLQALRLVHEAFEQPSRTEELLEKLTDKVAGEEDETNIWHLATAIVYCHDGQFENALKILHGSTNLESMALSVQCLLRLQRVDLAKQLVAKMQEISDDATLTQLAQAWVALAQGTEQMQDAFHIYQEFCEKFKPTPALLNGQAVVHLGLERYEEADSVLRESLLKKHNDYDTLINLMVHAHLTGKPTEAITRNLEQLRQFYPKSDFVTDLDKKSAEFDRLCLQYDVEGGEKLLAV

[2] = biological target: T2, GFP-Gorab (poly-Ubiquitin-GFP-Gorab) in embryos (Drosophila) (UniProt Q8IQQ4)
T2 sequence: T1 sequence

[3] = biological target: T1, GFP-Gorab in D-Mel cells (poly-Ubiquitin-GFP-Gorab or pMT-GFP-Gorab) (Drosophila); remark: listed apart in the source
[4] = biological target: T3, GFP-tagged Sas6 (polyUbiquitin-Sas6-GFP transgene) (Drosophila) (UniProt Q9VAC8)
T3 sequence: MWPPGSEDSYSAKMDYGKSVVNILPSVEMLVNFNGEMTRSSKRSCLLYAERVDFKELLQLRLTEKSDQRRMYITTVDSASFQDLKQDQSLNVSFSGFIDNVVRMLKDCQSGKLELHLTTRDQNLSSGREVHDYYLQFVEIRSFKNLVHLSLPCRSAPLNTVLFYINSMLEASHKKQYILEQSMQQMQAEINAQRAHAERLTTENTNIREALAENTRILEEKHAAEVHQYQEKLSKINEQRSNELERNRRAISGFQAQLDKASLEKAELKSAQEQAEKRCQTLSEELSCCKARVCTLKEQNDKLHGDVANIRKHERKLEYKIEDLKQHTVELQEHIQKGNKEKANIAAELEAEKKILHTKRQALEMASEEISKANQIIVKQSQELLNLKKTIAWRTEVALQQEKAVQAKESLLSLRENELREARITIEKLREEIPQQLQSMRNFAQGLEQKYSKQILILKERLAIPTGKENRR

[5] = biological target: T4, Protein-A-tagged Sas6 (Drosophila) (UniProt Q9VAC8)
T4 sequence: T3 sequence

For “αCOP subunit of the COPI coatomer complex (Drosophila (endogenous in D-Mel cells))”, the binding [1] was “binds”.

For “εCOP subunit of the COPI coatomer complex (from UniProt Q9Y0Y5)”, the binding [1] was “binds”.

B1: Sas6, endogenous in embryos (protein, UniProt Q9VAC8 1-472)
chain: T3 sequence
For B1, the binding [2] was “binds”.

B2: Sas6, endogenous in cultured cells (protein, UniProt Q9VAC8 1-472)
chain: T3 sequence
For B2, the binding [3] was “binds”.

B3: β’COP subunit of the COPI coatomer complex (protein, UniProt O62621 1-914)
chain: MPLKLDIKRRLTSRSDRVKCVDLHPAEPWMLCALYNGHVHIMNYENQQMVKDFEVCDVPVRSARFVARKNWILTGSDDMQIRVFNYNTLEKVHSFEAHSDYLRCIAVHPTQPLVLTSSDDMLIKLWNWEKMWACQRVFEGHTHYVMQIVFNPKDNNTFASASLDRTVKVWQLGSNFANFTLEGHEKGVNCVDYYHGGDKPYLISGADDRLVKIWDYQNKTCVQTLEGHAQNISAVCFHPELPIVLTGSEDGTVRIWHSGTYRLETCLNYGFERVWTISSMRGTNNVALGYDEGSIIIKVGREEPAMSMDVVGSKIIWAKHSEMQQVNLKTIADGTEIKDGERLPVATKDMGACEIYPQTIAHNPNGRFVVVCGDGEYIIYTSMALRNKAFGSAQEFVWALESNEYAIRENNGTVRLFRNFKERKSFTPEYGAESIYGGYYFGVKTSSGLAFYDWETLQLVRRIEVQPKNVFWNESGSLVCLATDDSYFVLGVDTAQVANAVETKEGLEDDGVESAFNVLGEVSECVKTGLWVGDCFIYTNSVNRINYYVGGEIVTVSHLDRTMYLLGYVPKDNRIYLGDKELNVISFCLQLSVLEYQTAVMRRDFERADVVLPTIPKEHRTRVAHFLEKQGFKSQALQVSTDADHKFDLALQIGDLEIALKLARESENSQKWSQLADVASSKNNMSLVKECMQKANDLSGLLLLSTASGDAQLLEVVGAAGSAQGHHNLAFLSAFLRSDVERCLEILIETNRLPEAAFFARTYLPSQMSRIVELWREKLGKVNEKAGQSLADPAQYTNLFPGLGDALRVEQHLQEERARKAPARLAANLPLNSERHPLQELFAAEQGAAGQHLEEKVKPAYVPAQAVVSSSQVAEPTSAADDDDDLDLEIDGITLDDNIDTTDVNLDDDFLSDD
In the case of B3, the binding [3] is reported as “binds”.

B4: γCOP subunit of the COPI coatomer complex (protein, UniProt Q8I0G5 1-883)
chain: MNYFSLTSHKKHRGHPSAGPSNAYQNLEKTSVLQETRTFNETPVNPRKCIHILTKILYLINQGEQLVAREATDCFFAMTKLFQSKDVVLRRMVYLGIKELSSIAEDVIIVTSSLTKDMTGKEDLYRAAAIRALCSITDNTMLQAVERYMKQCIVDKNAAVSCAALVSSLRLANTAGDVVKRWANEAQEALNSDNIMVQYHALGLLYHIRKSDRLAVSKLVNKLTRGSLKSPYAVCMLIRIACKLIEEEDIPSEELSDSPLFTFIESCLRHKSEMVIYEAAHAIVNLKNTNPRMLSPAFSILQLFCSSPKATLRFAAVRTLNKVAMTHPAAVTTCNLDLEGLITDSNRSVATLAITTLLKTGAESSVERLMKQISTFVAEISDEFKVVVVQAICALCTKYPRKHTVLMNFLSGMLREEGGLEYKTSIVDTIITIIEENADAKESGLSHLCEFIEDCEHVSLAVRILHLLGKEGPFAATPSKYIRFIYNRVILESPIVRAAAVTAMAQFGASCPALLSNILVLLGRCQMDPDDEVRDRATYYLSILNSERPELYKNYIIERENCSLALLEKSLVEHLNGDVDTRFDISIVPKAAIVKPVIANDVMLVTSSAPRPPKITREEESAARLAQLPGIQVLGPIHRSTAPIQLTESETEYTVQCIKHIFGQHVVFQFDCLNTLSDQILENVRVELTLPEGFTTRAVIPCPKLPYNDLQTTFVIVEFPPDAANSIATFGATLRFVVKDCDPNTGEPESEEGYDDEYMLEDLELTVADQIQKTRKNNFQVSWDAADSEEWLQAEDTFVLSAVTTLQDAVNTIVKILGLGAANLSENVPEGTHLHTLLCSGTFRGGAEILVRAKLALSEGVTLNLTVRSTDQDVAELITAAIG
B4 was tested, and the binding [3] was “binds”.

B5: Gorab (CG33052 gene product), endogenous in embryos (protein, UniProt Q8IQQ4 1-338)
chain: T1 sequence
B5 was tested, and the binding [4] was “binds”.

B6: Gorab (CG33052 gene product), endogenous in cultured cells (protein, UniProt Q8IQQ4 1-338)
chain: T1 sequence
With B6 the binding [5] was “binds”.

B7: βCOP subunit of the COPI coatomer complex (protein, UniProt P45437 1-964)
chain: MTSQVPCYTIINSPDLEVTNEMQLKRDLEKGDTNVKIETLKRVIKLLLNGERYPGLIMTIIRFVLPVQNHTIKKLLLIFWEIVPKTSADGKLLQEMILVCDAYRKDLQHPNEFLRGSTLRFLCKLKEPELLEPLMPAIRACLDHRHSYVRRNAVLAIFTIYKNFDWLVPDGPELIASFLDTQQDMSCKRNAFLMLLHADQERALNYLASCIDQVHTFGDILQLVIVELIYKVCHANPAERSRFIRCIYNLLNSSSNAVRYESAGTLITLSLAPTAIKAAASCYIELVVKESDNNVKLIVLDRLVAMKEHEGMEKVMQDLVMDVLRVLAAPDIEVRRKTLALALDLVYSRNIGEMVLVLKKEVAKTHNVEHEDTGKYRQLLVRTLHTCSIKFPDVAANVIPVLVEFLSDTNELAAADVLIFIREAIQKFPALRALIIEHLIEAFPQIKSSKIHRAAVWILGEYVEGSQILEVIAVIQQTLGEVPMVEAEQRRLAGDQTEEQKQQQGSAGGNAAGSAAEGSGSGNASNKVTSDGTYATQSAYSLAPVAKAEKRPPLRQYLMDGDFFIGAALSATLTKLALRYAELETEARAQNRLTTQVMLIMSSILHLGKSGFPSKPITNDDTDRIFVCLRTLSERTPEAISVFTLYCREALGKMLDAQHDEDQRMLKEKQKATAKVQPDDPVLFAQLSNGRDNQLGENVFESSLNQALAGSKNAQLSDVASPNSKLNKVTQLTGFSDPVYAEAYVNVNQYDIVLDVLIVNQTNDTLQNCTLELATLGDLKLVERPHPVVLAPHDFCNIKANVKVSSTENGIIFGNIVYETALNTNVVVLNTIHIDIMDYIIPASCTDTEFRQMWQDFEWENKVTVNTSFTDLHEYLKHLLKSTNMKCLTPEKALSGQCGFMAANMYAKSIFGENALANLSIEKPVDDPDSKVTGHIRIRAKSQGMALSLGDKISSSQKQSVQAA
In the case of B7, the binding [3] is reported as “binds”.
